Measurements from paper PMC12969390.
No constants are given. Whether binding was seen depends on the method and setting. Binding seen in cells or lysates may run through a third protein. A yes stands for co-enrichment or nearness to the bait. Other partners may have been found. For some of these results: No binding means not detected with the bait.

The chains behind the UniProt entries cited, without tags or fusion partners.
UniProt A0A1D8PSS1: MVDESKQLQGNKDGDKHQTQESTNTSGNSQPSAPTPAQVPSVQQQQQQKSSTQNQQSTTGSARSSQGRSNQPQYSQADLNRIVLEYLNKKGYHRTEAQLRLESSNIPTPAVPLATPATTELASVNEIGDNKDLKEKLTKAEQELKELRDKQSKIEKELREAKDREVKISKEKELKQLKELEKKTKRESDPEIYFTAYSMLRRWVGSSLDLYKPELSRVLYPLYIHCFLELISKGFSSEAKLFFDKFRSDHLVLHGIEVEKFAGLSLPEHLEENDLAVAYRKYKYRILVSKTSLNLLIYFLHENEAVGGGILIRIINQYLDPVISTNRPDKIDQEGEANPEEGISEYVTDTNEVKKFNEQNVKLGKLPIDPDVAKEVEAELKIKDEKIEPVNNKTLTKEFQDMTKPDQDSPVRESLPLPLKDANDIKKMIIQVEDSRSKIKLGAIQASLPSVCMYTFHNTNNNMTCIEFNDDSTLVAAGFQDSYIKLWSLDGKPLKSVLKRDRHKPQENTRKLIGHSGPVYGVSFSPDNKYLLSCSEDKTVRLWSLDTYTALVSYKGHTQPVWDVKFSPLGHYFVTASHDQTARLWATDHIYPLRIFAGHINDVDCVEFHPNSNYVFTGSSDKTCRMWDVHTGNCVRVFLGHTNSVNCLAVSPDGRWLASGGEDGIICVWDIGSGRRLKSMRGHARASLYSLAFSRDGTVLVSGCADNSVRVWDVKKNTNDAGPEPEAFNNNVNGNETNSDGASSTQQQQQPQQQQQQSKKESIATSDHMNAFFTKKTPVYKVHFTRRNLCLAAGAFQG
UniProt A0A1D8PNT2: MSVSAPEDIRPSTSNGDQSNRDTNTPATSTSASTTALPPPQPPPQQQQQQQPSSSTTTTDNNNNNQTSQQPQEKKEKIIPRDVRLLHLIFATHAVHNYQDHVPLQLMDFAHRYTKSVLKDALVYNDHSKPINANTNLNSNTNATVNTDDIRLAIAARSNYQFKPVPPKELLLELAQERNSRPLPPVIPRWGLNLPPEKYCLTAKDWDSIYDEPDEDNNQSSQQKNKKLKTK
UniProt A0A1D8PSN1: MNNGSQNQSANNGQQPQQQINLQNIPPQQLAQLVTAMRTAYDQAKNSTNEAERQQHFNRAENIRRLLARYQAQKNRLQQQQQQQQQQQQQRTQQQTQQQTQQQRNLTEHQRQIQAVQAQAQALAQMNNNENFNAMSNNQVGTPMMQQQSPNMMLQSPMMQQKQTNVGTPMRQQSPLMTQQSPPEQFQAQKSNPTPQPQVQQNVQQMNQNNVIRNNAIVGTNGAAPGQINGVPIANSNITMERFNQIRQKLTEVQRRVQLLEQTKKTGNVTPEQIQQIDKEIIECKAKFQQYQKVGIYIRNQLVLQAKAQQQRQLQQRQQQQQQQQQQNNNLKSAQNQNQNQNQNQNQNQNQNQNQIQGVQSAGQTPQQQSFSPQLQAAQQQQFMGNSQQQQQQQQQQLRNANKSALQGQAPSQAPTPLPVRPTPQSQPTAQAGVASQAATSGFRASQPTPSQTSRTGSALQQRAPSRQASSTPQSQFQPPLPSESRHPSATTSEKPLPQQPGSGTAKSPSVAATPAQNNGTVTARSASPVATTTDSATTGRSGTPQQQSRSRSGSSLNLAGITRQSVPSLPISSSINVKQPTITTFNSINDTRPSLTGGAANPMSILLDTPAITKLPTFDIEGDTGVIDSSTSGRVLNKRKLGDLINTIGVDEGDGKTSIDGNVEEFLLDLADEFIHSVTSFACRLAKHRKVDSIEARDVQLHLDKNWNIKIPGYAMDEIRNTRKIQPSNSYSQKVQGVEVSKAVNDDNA

Columns and labels:
[1] = target: 3xFLAG-tagged TAF12L (C. albicans); assay: affinity purification with mass spectrometry; TAF12L-FLAG purified from C. albicans extract on anti-FLAG M2 affinity agarose, eluted, MudPIT; untagged strain SN87 as control
TBP-TAP (C. albicans) = target: T1, TBP-TAP (C. albicans) (UniProt O43133); assay: affinity purification with mass spectrometry; TBP-TAP and TAF11-TAP affinity purified from C. albicans strains, MudPIT; untagged strain SN87 as control
T1 sequence: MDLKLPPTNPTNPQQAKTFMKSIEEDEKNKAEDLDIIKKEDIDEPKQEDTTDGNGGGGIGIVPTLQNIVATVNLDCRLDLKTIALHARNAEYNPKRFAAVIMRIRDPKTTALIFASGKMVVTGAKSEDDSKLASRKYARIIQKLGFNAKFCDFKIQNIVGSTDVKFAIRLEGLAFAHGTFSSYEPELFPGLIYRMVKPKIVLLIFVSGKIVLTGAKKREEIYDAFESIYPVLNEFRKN

TAF11-TAP (C. albicans) = target: T2, TAF11-TAP (C. albicans) (UniProt Q59SU6); assay: as above
T2 sequence: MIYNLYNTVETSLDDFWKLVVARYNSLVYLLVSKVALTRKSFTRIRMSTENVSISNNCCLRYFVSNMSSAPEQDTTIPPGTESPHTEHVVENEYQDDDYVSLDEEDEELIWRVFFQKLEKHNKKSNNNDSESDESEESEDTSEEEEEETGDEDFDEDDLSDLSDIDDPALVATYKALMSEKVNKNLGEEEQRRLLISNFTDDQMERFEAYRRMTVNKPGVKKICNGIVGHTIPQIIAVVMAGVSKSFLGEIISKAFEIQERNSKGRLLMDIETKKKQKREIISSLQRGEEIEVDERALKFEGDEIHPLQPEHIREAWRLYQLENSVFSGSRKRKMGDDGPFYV

Row | binding [1] | binding (TBP-TAP (C. albicans)) | binding (TAF11-TAP (C. albicans)) | Substance
1 | binds |  |  | TAF5 (from UniProt A0A1D8PSS1 1-798)
2 | binds |  |  | TAF9 (from UniProt A0A1D8PNT2 1-231)
3 |  | no binding | no binding | TAF12L (from UniProt A0A1D8PSN1 1-750)
